Measured values taken from paper PMC9508196 (Scientific Reports, 2022).
No end group written: not given here.

Experiments:
[1] = test system: Gram-negative bacterial strains; settings: ratio of MHC to GM of MICs, MHC > 250 taken as 500, < 0.98 as 0.49 µg/ml
[2] = test system: Gram-positive bacterial strains; settings: ratio of MHC to GM of MICs, MHC > 250 taken as 500, < 0.98 as 0.49 µg/ml

| Compound | Therapeutic index (TI) (Gr.- strains) [1] | Therapeutic index (TI) (Gr. + strains) [2] |
| --- | --- | --- |
| CC[C@H](C)[C@H](NC(=O)CN)C(=O)NCC(=O)N[C@@H](C)C(=O)N[C@H](C(=O)N[C@@H](CC(C)C)C(=O)N[C@@H](CCCCN)C(=O)N[C@H](C(=O)N[C@@H](CC(C)C)C(=O)N[C@H](C(=O)N[C@H](C(=O)NCC(=O)N[C@@H](CC(C)C)C(=O)N1CCC[C@H]1C(=O)N[C@@H](C)C(=O)N[C@@H](CC(C)C)C(=O)N[C@H](C(=O)N[C@@H](CO)C(=O)N[C@@H](Cc1c[nH]c2ccccc12)C(=O)N[C@H](C(=O)N[C@@H](CCCCN)C(=O)N[C@@H](CCCNC(=N)N)C(=O)N[C@@H](CCCCN)C(=O)N[C@@H](CCCNC(=N)N)C(=O)N[C@@H](CCC(N)=O)C(=O)N[C@@H](CCC(N)=O)C(N)=O)[C@@H](C)CC)[C@@H](C)CC)[C@@H](C)O)[C@@H](C)O)C(C)C)C(C)C [Melittin, reference compound] | 0.09 | 0.06 |
| RLFRRVKKVAGK-NH2 [AP12] | 1.92 | 1.45 |
| RLFRRVKKVAGKIAKRIWKILRR-NH2 [A3P7] | 0.21 | 0.29 |
| RLFRRVKKVAGKIAK-NH2 [AP15] | 8.00 | 2.51 |
| RLFRRVKKVAGKI-NH2 [AP13] | 2.00 | 1.78 |
| RLFRRVKKVAGKIAKRI-NH2 [AP17] | 21.33 | 14.22 |
| RLFRRVKKVAGKIAKR-NH2 [AP16] | 9.60 | 5.02 |
| RLFRRVKKVAGKIAKRIWK-NH2 [AP19] | 69.8 | 85.32 |
| RLFRRVKKVAGKIA-NH2 [AP14] | 2.29 | 1.83 |
| RLFRRVKKVAGKIAKRIW-NH2 [AP18] | 69.8 | 63.98 |
